Reference: patent US20260001953A1
These are yes or no findings as the source states them, for the method shown. Some entries that bind do so weakly or less than the wild type.

Chains of the proteins cited; added tags and fusions are not shown. Lines headed by an entry give the natural chain unless they say otherwise; changes in a name come on top. Residues count along the entry.
UniProt P10721: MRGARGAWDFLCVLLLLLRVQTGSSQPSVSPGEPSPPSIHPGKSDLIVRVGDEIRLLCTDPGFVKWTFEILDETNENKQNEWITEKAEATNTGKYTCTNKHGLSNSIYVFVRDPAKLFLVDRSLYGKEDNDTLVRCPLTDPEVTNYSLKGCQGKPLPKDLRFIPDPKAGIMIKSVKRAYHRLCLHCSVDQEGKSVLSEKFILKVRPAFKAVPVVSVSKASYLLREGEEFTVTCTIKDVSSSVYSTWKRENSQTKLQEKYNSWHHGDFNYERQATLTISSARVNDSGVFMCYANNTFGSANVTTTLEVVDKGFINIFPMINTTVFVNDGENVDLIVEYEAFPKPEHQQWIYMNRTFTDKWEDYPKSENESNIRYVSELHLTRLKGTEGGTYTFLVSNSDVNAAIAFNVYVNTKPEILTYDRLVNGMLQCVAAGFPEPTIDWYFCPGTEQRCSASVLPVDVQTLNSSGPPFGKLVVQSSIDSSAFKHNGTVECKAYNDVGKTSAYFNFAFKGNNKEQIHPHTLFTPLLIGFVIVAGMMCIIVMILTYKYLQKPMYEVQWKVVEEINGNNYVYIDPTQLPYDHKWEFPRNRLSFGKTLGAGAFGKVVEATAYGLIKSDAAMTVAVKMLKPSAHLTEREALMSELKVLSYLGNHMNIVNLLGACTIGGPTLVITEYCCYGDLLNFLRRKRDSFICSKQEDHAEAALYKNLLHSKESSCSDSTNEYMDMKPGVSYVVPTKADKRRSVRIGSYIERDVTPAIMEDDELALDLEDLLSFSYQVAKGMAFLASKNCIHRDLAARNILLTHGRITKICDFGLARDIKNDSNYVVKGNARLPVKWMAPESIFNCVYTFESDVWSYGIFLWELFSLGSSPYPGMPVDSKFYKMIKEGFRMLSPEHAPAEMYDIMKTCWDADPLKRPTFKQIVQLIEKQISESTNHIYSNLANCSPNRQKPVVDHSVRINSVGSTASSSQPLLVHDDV
CD117 transiently expressed on Expi293 cells: residues 26-976 of P10721
Cluster of differentiation 117 (CD117), antigen of epitope binning and ELISA: residues 26-520 of P10721
UniProt Q9NYZ4: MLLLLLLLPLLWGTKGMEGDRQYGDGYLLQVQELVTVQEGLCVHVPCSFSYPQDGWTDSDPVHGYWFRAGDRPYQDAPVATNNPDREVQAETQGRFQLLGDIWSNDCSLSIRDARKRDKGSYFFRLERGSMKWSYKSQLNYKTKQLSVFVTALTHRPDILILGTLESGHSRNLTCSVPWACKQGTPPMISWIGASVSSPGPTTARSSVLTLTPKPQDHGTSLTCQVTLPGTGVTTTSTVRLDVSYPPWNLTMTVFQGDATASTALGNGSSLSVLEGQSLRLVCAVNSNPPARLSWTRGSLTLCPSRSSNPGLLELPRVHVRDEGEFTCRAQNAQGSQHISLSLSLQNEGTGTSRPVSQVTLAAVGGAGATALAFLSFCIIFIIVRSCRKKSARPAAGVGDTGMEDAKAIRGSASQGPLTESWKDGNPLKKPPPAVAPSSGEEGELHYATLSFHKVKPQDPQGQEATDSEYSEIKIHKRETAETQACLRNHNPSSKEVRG
SIGLEC-8 transiently expressed on cells: residues 17-499 of Q9NYZ4
Sialic acid-binding immunoglobulin-like lectin 8 (SIGLEC-8), antigen of the Carterra SPR studies: residues 17-363 of Q9NYZ4

Legend:
[1] = target: Cluster of differentiation 117 (CD117), antigen of epitope binning and ELISA (UniProt P10721); experiment: clonal ELISA screening, ranked by EC50
[2] = target: CD117 transiently expressed on Expi293 cells (UniProt P10721); experiment: FACS histogram, RL1-H :: APC-H, single cells
[3] = target: CD117 transiently expressed on Expi293 cells (UniProt P10721); experiment: FACS, Expi293 transiently expressing CD117
[4] = target: CD117 transiently expressed on Expi293 cells (UniProt P10721); experiment: FACS titration, CD117-expressing vs parental cells, MFI RH-1 against nM
[5] = target: SIGLEC-8 transiently expressed on cells (UniProt Q9NYZ4); experiment: flow cytometry titration, Expressing vs Parental cells
[6] = target: CD117 transiently expressed on Expi293 cells (UniProt P10721); experiment: flow cytometry titration on CD117 transient cells and on parental Expi293
[7] = target: SIGLEC-8 transiently expressed on cells (UniProt Q9NYZ4); experiment: flow cytometry titration on cells transiently expressing SIGLEC-8 and on parental Expi293
[8] = target: SIGLEC-8 transiently expressed on cells (UniProt Q9NYZ4); experiment: flow cytometry histograms of the titration
[9] = target: Sialic acid-binding immunoglobulin-like lectin 8 (SIGLEC-8), antigen of the Carterra SPR studies (UniProt Q9NYZ4); experiment: comparison with immobilized lirentelimab / immobilized SIGLEC-8-40 (FIGS. 15A-15B)

| Binder | binding [3] | binding [4] | other results |
| --- | --- | --- | --- |
| CD117-14 (antibody, human IgG1, kappa, V domains shown) VH: EVQLLESGGGLVQPGGSLRLSCAASGFTFSDYAMGWVRQAPGKGLEWVSGIGGSGGSAYYADSVKGRFTISRDNSKNTLYLQMNSLRAEDTAVYYCARGFDSTDGVDYWGQGTLVTVSS VL: DIQMTQSPSSLSASVGDRVTITCQTSQSVSSYLNWYQQKPGKAPKLLIYGASRLESGVPSRFSGSGSGTDFTLTISSLQPEDFATYYCQQSYKTPWTFGGGTKVEIKR | binds | binds | binding [1]: binds; binding [2]: binds |
| SIGLEC-8-51 (antibody, human IgG1, kappa, V domains shown) VH: EVQLLESGGGLVQPGGSLRLSCAASGFTFPRYGMSWVRQAPGKGLEWVTATSGSGGTTYYADSVKGRFTISRDNSKNTLYLQMNSLRAEDTAVYYCARDESSGWYPKDYWGQGTLVTVSS VL: DIQMTQSPSSLSASVGDRVTITCRASQSVSRFLNWYQQKPGKAPKLLIYGASNLEGGVPSRFSGSGSGTDFTLTISSLQPEDFATYYCQQSYTTPHTFGGGTKVEIKR |  |  | binding [5]: binds |
| CD117-10 (antibody, human IgG1, kappa, V domains shown) VH: EVQLLESGGGLVQPGGSLRLSCAASGFIFSSYAMTWVRQAPGKGLEWVSSISGRGGNTYYADSVKGRFTISRDNSKNTLYLQMNSLRAEDTAVYYCAKMMDDFYDAFNMWGQGTLVTVSS VL: DIQMTQSPSSLSASVGDRVTITCRASQSIRTYLNWYQQKPGKAPKLLIYDASSLESGVPSRFSGSGSGTDFTLTISSLQPEDFATYYCQQSFTTPYTFGGGTKVEIKR | binds |  |  |
| CD117-4 (antibody, human IgG1, kappa, V domains shown) VH: EVQLLESGGGLVQPGGSLRLSCAASGFTFSRSAMSWVRQAPGKGLEWVSAISAGGGNTYYADSVKGRFTISRDNSKNTLYLQMNSLRAEDTAVYYCAREQDLWSGTFDYWGQGTLVTVSS VL: DIQMTQSPSSLSASVGDRVTITCRARQSISSYLNWYQQKPGKAPKLLIYDASSLRSGVPSRFSGSGSGTDFTLTISSLQPEDFATYYCQQSYKTPWTFGGGTKVEIKR |  | binds | binding [6]: binds |
| CD117-12 (antibody, human IgG1, kappa, V domains shown) VH: EVQLLESGGGLVQPGGSLRLSCAASGITFSSYAMTWVRQAPGKGLEWVSAISSSGTGTYYADSVKGRFTISRDNSKNTLYLQMNSLRAEDTAVYYCARERAPKDFGSSGYSFDYWGQGTLVTVSS VL: DIQMTQSPSSLSASVGDRVTITCRASQSIDIYLNWYQQKPGKAPKLLIYKASSLQSGVPSRFSGSGSGTDFTLTISSLQPEDFATYYCQQSYTVPITFGGGTKVEIKR |  | binds |  |
| CD117-1 (antibody, human IgG1, kappa, V domains shown) VH: EVQLLESGGGLVQPGGSLRLSCAASGFTLTSYAMSWVRQAPGKGLEWVSTISGSGGYTYYADSVKGRFTISRDNSKNTLYLQMNSLRAEDTAVYYCARDSGYDRGLDYWGQGTLVTVSS VL: DIQMTQSPSSLSASVGDRVTITCRASQSVRTYLNWYQQKPGKAPKLLIYDASTLQSGVPSRFSGSGSGTDFTLTISSLQPEDFATYYCQQSYSSSITFGGGTKVEIKR |  |  | binding [6]: binds |
| CD117-2 (antibody, human IgG1, kappa, V domains shown) VH: EVQLLESGVGLVQPGGSLRLSCAASGFSFGSYAMSWVRQAPGKGLEWVSSISGSGGTTYYADSVKGRFTISRDNSKNTLYLQMNSLRAEDTAVYYCARDPDDYGDYYFDYWGQGTLVTVSS VL: DIQMTQSPSSLSASVGDRVTITCRASQSIGEYLNWYQQKPGKAPKLLIYATSSLQRGVPSRFSGSGSGTDFTLTISSLQPEDFATYYCQQSHTTPYTFGGGTKVEIKR |  |  | binding [1]: binds; binding [2]: binds; binding [6]: binds |
| SIGLEC-8-1 (antibody, human IgG1, kappa, V domains shown) VH: EVQLLESGGGLVQPGGSLRLSCAASGFTFSNFPMSWVRQAPGKGLEWVSSISGTGSSTYYADSVKGRFTISRDNSKNTLYLQMNSLRAEDTAVYYCVREGRYFYYAMDVWGQGTLVTVSS VL: DIQMTQSPSSLSASVGDRVTITCRASQNIAGYLNWYQQKPGKAPKLLIYAASNLHTGVPSRFSGSGSGTDFTLTISSLQPEDFATYYCQQSYSTPLAFGGGTKVEIKR |  |  | binding [7]: binds; binding [8]: binds |
| CD117-7 (antibody, human IgG1, kappa, V domains shown) VH: EVQLLESGGGLVQPGGSLRLSCAASGFTFSDYAMGWVRQAPGKGLEWVSGIGGSGGSAYYADSVKGRFTISRDNSKNTLYLQMNSLRAEDTAVYYCARGFDSTDGVDYWGQGTLVTVSS VL: DIQMTQSPSSLSASVGDRVTITCRASQSIGNYLNWYQQKPGKAPKLLIYAASDLQTGVPSRFSGSGSGTDFTLTISSLQPEDFATYYCQQGYSTPYTFGGGTKVEIKR | binds |  |  |
| CD117-17 (antibody, human IgG1, kappa, V domains shown) VH: EVQLLESGGGLVQPGGSLRLSCAASGFTFSDYPMSWVRQAPGKGLEWVSAIGGSGGDTYYADSVKGRFTISRDNSKNTLYLQMNSLRAEDTAVYYCARGAYDGEGFDYWGQGTLVTVSS VL: DIQMTQSPSSLSASVGDRVTITCRASQTISGYLNWYQQKPGKAPKLLIYDASTLQRGVPSRFSGSGSGTDFTLTISSLQPEDFATYYCQQNYRTPFTFGGGTKVEIKR | binds |  |  |
| CD117-9 (antibody, human IgG1, kappa, V domains shown) VH: EVQLLESGGGLVQPGGSLRLSCAASGFSFTNYAMSWVRQAPGKGLEWVSSISGSGGSTYYADSVKGRFTISRDNSKNTLYLQMNSLRAEDTAVYYCARGSGSYFGFDFWGQGTLVTVSS VL: DIQMTQSPSSLSASVGDRVTITCRASQGIGTYLNWYQQKPGKAPKLLIYAASSLQPGVPSRFSGSGSGTDFTLTISSLQPEDFATYYCQQSYRPPFTFGGGTKVEIKR |  |  | binding [1]: binds; binding [2]: binds |
| CD117-8 (antibody, human IgG1, kappa, V domains shown) VH: EVQLLESGGGLVQPGGSLRLSCAASGFTLTSYAMSWVRQAPGKGLEWVSTISGSGGYTYYADSVKGRFTISRDNSKNTLYLQMNSLRAEDTAVYYCARDSGYDRGLDYWGQGTLVTVSS VL: DIQMTQSPSSLSASVGDRVTITCRASQSVRTYLNWYQQKPGKAPKLLIYDASTLQSGVPSRFSGSGSGTDFTLTISSLQPEDFATYYCQQSYNTPLAFGGGTKVEIKR |  | binds |  |
| CD117-11 (antibody, human IgG1, kappa, V domains shown) VH: EVQLLESGGGLVQPGGSLRLSCAASGFTFGNFAMSWVRQAPGKGLEWVSLISGSGGNTYYADSVKGRFTISRDNSKNTLYLQMNSLRAEDTAVYYCARGDGVNGFDYWGQGTLVTVSS VL: DIQMTQSPSSLSASVGDRVTITCRASQSIPTYLNWYQQKPGKAPKLLIYATSTLESGVPSRFSGSGSGTDFTLTISSLQPEDFATYYCQQTYSTPYTFGGGTKVEIKR | binds |  |  |
| CD117-6 (antibody, human IgG1, kappa, V domains shown) VH: EVQLLESGGGLVQPGGSLRLSCAASGFTFSAYALTWVRQAPGKGLEWVSAISSSGGSTFYADSVKGRFTISRDNSKNTLYLQMNSLRAEDTAVYYCARVSRGYPRRSDSWGQGTLVTVSS VL: DIQMTQSPSSLSASVGDRVTTTCRASQGISTYLNWYQQKPGKAPKLLIYGASRLQGGVPSRFSGSGSGTDFTLTISSLQPEDFATYYCQQGYSFPWTFGGGTKVEIKR | binds | binds | binding [1]: binds; binding [2]: binds |
| SIGLEC-8-40 (antibody, human IgG1, kappa, V domains shown) VH: EVQLLESGGGLVQPGGSLRLSCAASGFTFSFFDMMWVRQAPGKGLEWVSQISETGRRTYYADSVKGRFTISRDNSKNTLYLQMNSLRAEDTAVYYCATAEDEQGYDYWGQGTLVTVSS VL: DIQMTQSPSSLSASVGDRVTITCRASQSINFWLRWYQQKPGKAPKLLIYGTTSLESGVPSRFSGSGSGTDFTLTISSLQPEDFATYYCQQTATWPFTFGQGTKVEIKR |  |  | binding [9]: binds |

More lines, main results first:

| binding [3] | binding [4] | Binder | other results |
| --- | --- | --- | --- |
| binds | binds | CD117-18 (antibody, human IgG1, kappa, V domains shown) VH: EVQLLESGGGLVQPGGSLRLSCAASGFTFSDYSMNWVRQAPGKGLEWVSAITGSGGNTFYADSVKGRFTISRDNSKNTLYLQMNSLRAEDTAVYYCARSNYEQDVFDIWGQGTLVTVSS VL: DIQMTQSPSSLSASVGDRVTITCRASQTIYRYLNWYQQKPGKAPKLLIYDASDLQSGVPSRFSGSGSGTDFTLTISSLQPEDFATYYCQQSYSIPITFGGGTKVEIKR |  |
|  | binds | CD117-19 (antibody, human IgG1, kappa, V domains shown) VH: EVQLLESGGGLVQPGGSLRLSCAASGFSFSSYAMSWVRQAPGKGLEWVSAISGTGGNTYYADSVKGRFTISRDNSKNTLYLQMNSLRAEDTAVYYCARRNDFWSDAFDIWGQGTLVTVSS VL: DIQMTQSPSSLSASVGDRVTITCRASQNIYTYLNWYQQKPGKAPKLLIYDASSLHSGVPSRFSGSGSGTDFTLTISSLQPEDFATYYCQQSYSSSITFGGGTKVEIKR |  |
|  | binds | CD117-20 (antibody, human IgG1, kappa, V domains shown) VH: EVQLLESGGGLVQPGGSLRLSCAASGFTFSSDAMNWVRQAPGKGLEWVSGISGSGGYTYYADSVKGRFTISRDNSKNTLYLQMNSLRAEDTAVYYCARSGNVVGDGMDVWGQGTLVTVSS VL: DIQMTQSPSSLSASVGDRVTITCRASQNIRRYLNWYQQKPGKAPKLLIYDASTLESGVPSRFSGSGSGTDFTLTISSLQPEDFATYYCQQSHTTPLTFGGGTKVEIKR |  |
